In patent US6518307B2, “Control of microbial populations in the gastrointestinal tract of animals” (Lynntech, Inc., priority 2000, dated 2003):

Tests used:
[1] = Acceptance of drinking water biocides by broilers (Examples 1 and 2); assay type: in vivo
[2] = Palatability of peroxy acids in drinking water of broilers (weight change after 2 h); assay type: in vivo, broiler chickens; details: 0.05% in drinking water, two hours after seven-hour water removal

Compound	palatability / water refusal in drinking water [1]	palatability (water consumption, indirectly by weight) [2]
O=[O+][O-] [Ozone]	very palatable	–
CC(=O)OO [peracetic acid]	–	significant water refusal
